Laboratory results taken from patent US20060008512A1, “Composition and methods for improved animal performance” (priority 2004, published 2006).
Like-named read-outs stand apart in the source and are kept apart here. The source gives many values for each of these; only a part stands here.

Key:
[1] = test system: Hy-Line W-36 White Leghorn hens
Protocol: Experiment 2. […] The photoperiod was 17 hours of light per day (0330 hours to 2030 hours).
The objective was to use T4 to humanely induce molting in hens that are continuously provided with ad libitum access to palatable feed meeting or exceeding all National Research Council (1994) standards. Developing a fully efficacious yet affordable molting protocol was predicated on determining the minimum effective level for T4 supplementation. Factors that potentially may affect the required level of T4 supplementation include: (1) uncertainty regarding the efficiency of T4 absorption by the gastrointestinal tract, (2) the possibility that continuous dietary ingestion of T4 could trigger substantially different biological responses when compared single daily injections, and (3) the likelihood that daily T4 intake would diminish in parallel with molt-related reductions in feed intake associated with cessation in egg production. A spontaneous and voluntary loss of appetite (anorexia) commonly accompanies seasonal molting and broodiness in a variety of avian species (Berry, 2003; Webster, 2003). Accordingly, the responses of hens to diets containing 10, 20, and 40 mg T4/kg, to bracket the anticipated range of T4 needed to cause an effective molt, were determined.

[2] = test system: Hy-Line W-36 White Leghorn hens; remark: listed apart in the source
Description: Experiment 3. […] The photoperiod serves as the primary environmental signal that regulates reproductive function in many avian species. Increasing the photoperiod promotes maturation of the gonads and reproductive tract, whereas reducing the photoperiod causes the gonads and reproductive tract to regress and molting to occur.

N[C@@H](Cc1cc(I)c(Oc2cc(I)c(O)c(I)c2)c(I)c1)C(=O)O [L-thyroxine, 3,5,3′,5′-tetraiodo-L-thyronine]
Hen-day egg production ([1]; 10 mg/kg of feed 10 d from day 5, day 20): 17%
Hen-day egg production ([1]; 20 mg/kg of feed 10 d from day 5, day 4): 75%
Hen-day egg production ([1]; 20 mg/kg of feed 10 d from day 5, day 6): 58%
Hen-day egg production ([1]; 20 mg/kg of feed 10 d from day 5, day 8): 8%
Hen-day egg production ([1]; 20 mg/kg of feed 10 d from day 5, day 10): 8%
Hen-day egg production ([1]; 20 mg/kg of feed 10 d from day 5, day 12): 0%
Hen-day egg production ([1]; 20 mg/kg of feed 10 d from day 5, day 14): 0%
Hen-day egg production ([1]; 20 mg/kg of feed 10 d from day 5, day 16): 0%
Hen-day egg production ([1]; 20 mg/kg of feed 10 d from day 5, day 18): 8%
Hen-day egg production ([1]; 20 mg/kg of feed 10 d from day 5, day 20): 8%
Hen-day egg production ([1]; 20 mg/kg of feed 10 d from day 5, day 22): 17%
Hen-day egg production ([1]; 20 mg/kg of feed 10 d from day 5, day 24): 17%
Hen-day egg production ([1]; 20 mg/kg of feed 10 d from day 5, day 26): 17%
Hen-day egg production ([1]; 20 mg/kg of feed 10 d from day 5, day 28): 33%
Hen-day egg production ([1]; 20 mg/kg of feed 10 d from day 5, day 30): 25%
Hen-day egg production ([1]; 40 mg/kg of feed 10 d from day 5, day 4): 67%
Hen-day egg production ([1]; 40 mg/kg of feed 10 d from day 5, day 6): 33%
Hen-day egg production ([1]; 40 mg/kg of feed 10 d from day 5, day 8): 8%
Hen-day egg production ([1]; 40 mg/kg of feed 10 d from day 5, day 10): 8%
Hen-day egg production ([1]; 40 mg/kg of feed 10 d from day 5, day 12): 0%
Hen-day egg production ([1]; 40 mg/kg of feed 10 d from day 5, day 14): 0%
Hen-day egg production ([1]; 40 mg/kg of feed 10 d from day 5, day 16): 0%
Hen-day egg production ([1]; 40 mg/kg of feed 10 d from day 5, day 18): 0%
Hen-day egg production ([1]; 40 mg/kg of feed 10 d from day 5, day 20): 0%
Hen-day egg production ([1]; 40 mg/kg of feed 10 d from day 5, day 22): 0%
Hen-day egg production ([1]; 40 mg/kg of feed 10 d from day 5, day 24): 0%
Hen-day egg production ([1]; 40 mg/kg of feed 10 d from day 5, day 26): 0%
Hen-day egg production ([1]; 40 mg/kg of feed 10 d from day 5, day 28): 0%
Hen-day egg production ([1]; 40 mg/kg of feed 10 d from day 5, day 30): 0%
Hen-day egg production ([2]; 20 mg/kg of feed 12 d from day 13, 8 hr light, day 12): 93.8%
Hen-day egg production ([2]; 20 mg/kg of feed 12 d from day 13, 8 hr light, day 14): 54.2%
Hen-day egg production ([2]; 20 mg/kg of feed 12 d from day 13, 8 hr light, day 16): 35.4%
Hen-day egg production ([2]; 20 mg/kg of feed 12 d from day 13, 8 hr light, day 18): 29.2%
Hen-day egg production ([2]; 20 mg/kg of feed 12 d from day 13, 8 hr light, day 20): 18.8%
Hen-day egg production ([2]; 20 mg/kg of feed 12 d from day 13, 8 hr light, day 22): 0.0%
Hen-day egg production ([2]; 20 mg/kg of feed 12 d from day 13, 8 hr light, day 24): 0.0%
Hen-day egg production ([2]; 20 mg/kg of feed 12 d from day 13, 8 hr light, day 26): 0.0%
Hen-day egg production ([2]; 20 mg/kg of feed 12 d from day 13, 8 hr light, day 28): 10.4%
Hen-day egg production ([2]; 20 mg/kg of feed 12 d from day 13, 8 hr light, day 30): 6.3%
Hen-day egg production ([2]; 20 mg/kg of feed 12 d from day 13, 8 hr light, day 32): 16.7%
Hen-day egg production ([2]; 20 mg/kg of feed 12 d from day 13, 8 hr light, day 34): 8.3%
Hen-day egg production ([2]; 20 mg/kg of feed 12 d from day 13, 17 hr light, day 12): 91.7%
Hen-day egg production ([2]; 20 mg/kg of feed 12 d from day 13, 17 hr light, day 14): 58.3%
Hen-day egg production ([2]; 20 mg/kg of feed 12 d from day 13, 17 hr light, day 16): 35.4%
Hen-day egg production ([2]; 20 mg/kg of feed 12 d from day 13, 17 hr light, day 18): 31.3%
Hen-day egg production ([2]; 20 mg/kg of feed 12 d from day 13, 17 hr light, day 20): 14.6%
Hen-day egg production ([2]; 20 mg/kg of feed 12 d from day 13, 17 hr light, day 22): 27.1%
Hen-day egg production ([2]; 20 mg/kg of feed 12 d from day 13, 17 hr light, day 24): 4.2%
Hen-day egg production ([2]; 20 mg/kg of feed 12 d from day 13, 17 hr light, day 26): 18.8%
Hen-day egg production ([2]; 20 mg/kg of feed 12 d from day 13, 17 hr light, day 28): 0.0%
Hen-day egg production ([2]; 20 mg/kg of feed 12 d from day 13, 17 hr light, day 30): 29.2%
Hen-day egg production ([2]; 20 mg/kg of feed 12 d from day 13, 17 hr light, day 32): 41.7%
Hen-day egg production ([2]; 20 mg/kg of feed 12 d from day 13, 17 hr light, day 34): 54.2%
Hen-day egg production ([2]; 40 mg/kg of feed 12 d from day 13, 8 hr light, day 12): 83.3%
Hen-day egg production ([2]; 40 mg/kg of feed 12 d from day 13, 8 hr light, day 14): 66.7%
Hen-day egg production ([2]; 40 mg/kg of feed 12 d from day 13, 8 hr light, day 16): 16.7%
Hen-day egg production ([2]; 40 mg/kg of feed 12 d from day 13, 8 hr light, day 18): 8.3%
Hen-day egg production ([2]; 40 mg/kg of feed 12 d from day 13, 8 hr light, day 20): 12.5%
Hen-day egg production ([2]; 40 mg/kg of feed 12 d from day 13, 8 hr light, day 22): 4.2%
Hen-day egg production ([2]; 40 mg/kg of feed 12 d from day 13, 8 hr light, day 24): 8.3%
Hen-day egg production ([2]; 40 mg/kg of feed 12 d from day 13, 8 hr light, day 26): 4.2%
Hen-day egg production ([2]; 40 mg/kg of feed 12 d from day 13, 8 hr light, day 28): 4.2%
Hen-day egg production ([2]; 40 mg/kg of feed 12 d from day 13, 8 hr light, day 30): 8.3%
Hen-day egg production ([2]; 40 mg/kg of feed 12 d from day 13, 8 hr light, day 32): 4.2%
Hen-day egg production ([2]; 40 mg/kg of feed 12 d from day 13, 8 hr light, day 34): 8.3%
Hen-day egg production ([2]; 40 mg/kg of feed 12 d from day 13, 17 hr light, day 12): 66.7%
Hen-day egg production ([2]; 40 mg/kg of feed 12 d from day 13, 17 hr light, day 14): 56.3%
Hen-day egg production ([2]; 40 mg/kg of feed 12 d from day 13, 17 hr light, day 16): 37.5%
Hen-day egg production ([2]; 40 mg/kg of feed 12 d from day 13, 17 hr light, day 18): 16.7%
Hen-day egg production ([2]; 40 mg/kg of feed 12 d from day 13, 17 hr light, day 20): 12.5%
Hen-day egg production ([2]; 40 mg/kg of feed 12 d from day 13, 17 hr light, day 22): 0.0%
Hen-day egg production ([2]; 40 mg/kg of feed 12 d from day 13, 17 hr light, day 24): 0.0%
Hen-day egg production ([2]; 40 mg/kg of feed 12 d from day 13, 17 hr light, day 26): 0.0%
Hen-day egg production ([2]; 40 mg/kg of feed 12 d from day 13, 17 hr light, day 28): 0.0%
Hen-day egg production ([2]; 40 mg/kg of feed 12 d from day 13, 17 hr light, day 30): 0.0%
Hen-day egg production ([2]; 40 mg/kg of feed 12 d from day 13, 17 hr light, day 32): 0.0%
Hen-day egg production ([2]; 40 mg/kg of feed 12 d from day 13, 17 hr light, day 34): 0.0%
